Test results taken from paper doi:10.1101/2021.02.22.432209.
Results are given in words; binding and its absence hold for the method and conditions named. Some binding calls cover weakened binding; strength is not graded here.

Amino acid sequences for entries named in this document (tags omitted). A change or cut given only in a name is not applied to a line headed by its entry.
UniProt O95166: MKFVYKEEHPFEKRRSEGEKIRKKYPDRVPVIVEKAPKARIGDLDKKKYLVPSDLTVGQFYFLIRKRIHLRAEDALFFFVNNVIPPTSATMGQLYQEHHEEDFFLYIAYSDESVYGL
UniProt Q9P278: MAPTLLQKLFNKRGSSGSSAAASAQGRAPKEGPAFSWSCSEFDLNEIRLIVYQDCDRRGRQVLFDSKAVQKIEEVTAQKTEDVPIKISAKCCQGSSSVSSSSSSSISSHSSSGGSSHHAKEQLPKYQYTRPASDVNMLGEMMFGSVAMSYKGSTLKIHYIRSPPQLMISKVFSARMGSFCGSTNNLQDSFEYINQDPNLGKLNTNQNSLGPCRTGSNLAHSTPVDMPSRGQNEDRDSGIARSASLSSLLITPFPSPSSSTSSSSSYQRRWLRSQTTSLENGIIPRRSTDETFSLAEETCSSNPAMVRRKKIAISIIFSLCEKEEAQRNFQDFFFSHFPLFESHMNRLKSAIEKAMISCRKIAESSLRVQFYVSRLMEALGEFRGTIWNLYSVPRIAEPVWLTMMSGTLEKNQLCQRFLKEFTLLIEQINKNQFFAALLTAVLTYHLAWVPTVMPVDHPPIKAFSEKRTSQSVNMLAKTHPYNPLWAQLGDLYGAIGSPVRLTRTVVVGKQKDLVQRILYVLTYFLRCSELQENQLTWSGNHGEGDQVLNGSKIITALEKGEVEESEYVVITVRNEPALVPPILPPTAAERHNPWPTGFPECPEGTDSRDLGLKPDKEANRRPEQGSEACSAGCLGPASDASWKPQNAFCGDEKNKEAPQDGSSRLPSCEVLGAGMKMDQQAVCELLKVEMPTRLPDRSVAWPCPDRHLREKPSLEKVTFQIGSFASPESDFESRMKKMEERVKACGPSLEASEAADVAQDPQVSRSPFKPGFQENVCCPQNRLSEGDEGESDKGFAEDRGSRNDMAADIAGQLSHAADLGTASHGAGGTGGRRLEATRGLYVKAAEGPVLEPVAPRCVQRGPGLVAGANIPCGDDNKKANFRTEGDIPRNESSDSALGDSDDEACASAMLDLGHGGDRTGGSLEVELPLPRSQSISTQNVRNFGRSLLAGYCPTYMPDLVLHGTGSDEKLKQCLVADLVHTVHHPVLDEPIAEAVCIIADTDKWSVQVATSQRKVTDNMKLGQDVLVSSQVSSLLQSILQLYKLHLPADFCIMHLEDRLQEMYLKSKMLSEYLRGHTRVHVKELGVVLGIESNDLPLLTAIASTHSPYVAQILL

Biological target: GABARAP, full-length (as part of the FNIP2-GABARAP chimera) (human) (UniProt O95166)
Experiment: crystal structure

In the case of EKGEVEESEYVVITVRNEP (domain or fragment, UniProt Q9P278 558-576) [FNIP2 residues 558-576 (as part of the FNIP2-GABARAP chimera)], the binding is reported as “binds”.
